Structures can show the parent of a compound that is named as a salt. ± gives the standard deviation of the averaged measurements. The list shows a part of the results. These are raw signals, not scaled to a control.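 Ribosome-assembly readouts in HeLa cells were imaged via ENP1 staining, with or without export block, or inducible tagged ribosomal protein reporters. Machine learning classified per-cell signal location versus solvent (DMSO) controls. Hits surpassed the DMSO false-positive mean by five standard deviations and were visually confirmed; three biological replicates.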
Key:
[1] = system: HeLa K (ENP1 immunofluorescence, +LMB); test: fraction of cells with nucleolar or nucleolar/nucleoplasmic ENP1 signal (MainHitrate); higher = more cells with nucleolar/nuclear readout signal (for ENP1 -LMB: less RNAPI inhibition; for +LMB ENP1 and RP reporters: stronger nuclear/nucleolar retention, i.e. ribosome biogenesis defect); conditions: concentration: 1 µM; treatment time: 6 h; ENP1 +LMB; leptomycin B: 20 nM, last 1.5 h
[2] = system: HeLa K (ENP1 immunofluorescence, no LMB); test: as above; conditions: concentration: 1 µM; treatment time: 6 h; ENP1 -LMB; leptomycin B: none
HeLa RPS2-YFP reporter = test: fraction of reporter-positive cells with nuclear (nucleolar or nucleolar/nucleoplasmic) RPS2-YFP (MainHitrate); higher = more cells with nucleolar/nuclear readout signal (for ENP1 -LMB: less RNAPI inhibition; for +LMB ENP1 and RP reporters: stronger nuclear/nucleolar retention, i.e. ribosome biogenesis defect); conditions: concentration: 1 µM; treatment time: 6 h
HeLa RPL29-GFP reporter = test: fraction of reporter-positive cells with nuclear (nucleolar or nucleolar/nucleoplasmic) RPL29-GFP (MainHitrate); higher = more cells with nucleolar/nuclear readout signal (for ENP1 -LMB: less RNAPI inhibition; for +LMB ENP1 and RP reporters: stronger nuclear/nucleolar retention, i.e. ribosome biogenesis defect); conditions: concentration: 1 µM; treatment time: 6 h

SMILES	fraction [1]	fraction [2]	fraction of reporter-positive cells with nuclear (HeLa RPS2-YFP reporter)	fraction of reporter-positive cells with nuclear (HeLa RPL29-GFP reporter)
Nc1ccn([C@@H]2CS[C@H](CO)O2)c(=O)n1 [Lamivudine (Epivir)]	0.0686 ± 0.056	0.9983 ± 0.0029	0.109 ± 0.083	0.203 ± 0.041
CCC(=O)O[C@@H](O[P@](=O)(CCCCc1ccccc1)CC(=O)N1C[C@H](C2CCCCC2)C[C@H]1C(=O)O)C(C)C [Fosinopril sodium (Monopril)]	0.0646 ± 0.087	0.992 ± 0.013	0.0989 ± 0.065	0.244 ± 0.074
NCC[C@H](O)C(=O)N[C@@H]1C[C@H](N)[C@@H](O[C@H]2O[C@H](CN)[C@@H](O)[C@H](O)[C@H]2O)[C@H](O)[C@H]1O[C@H]1O[C@H](CO)[C@@H](O)[C@H](N)[C@H]1O [Amikacin sulfate]	0.0587 ± 0.08	0.989 ± 0.019	0.121 ± 0.086	0.221 ± 0.059
NCCC(O)(P(=O)(O)O)P(=O)(O)O [Pamidronate Disodium]	0.0864 ± 0.044	0.9987 ± 0.0023	0.0917 ± 0.062	0.237 ± 0.053
C[C@]12CC[C@H](O)CC1=CC[C@@H]1[C@@H]2CC[C@]2(C)C(c3cccnc3)=CC[C@@H]12 [Abiraterone (CB-7598)]	0.105 ± 0.075	0.9964 ± 0.0062	0.108 ± 0.053	0.198 ± 0.039
Cc1nccn1CC1CCc2c(c3ccccc3n2C)C1=O (configuration not stated) [Ondansetron hydrochloride (Zofran)]	0.102 ± 0.11	0.9984 ± 0.0027	0.107 ± 0.085	0.211 ± 0.073
COc1c(C)c2c(c(O)c1C/C=C(\C)CCC(=O)O)C(=O)OC2 [Mycophenolic (Mycophenolate)]	0.0384 ± 0.056	0.678 ± 0.56	0.0852 ± 0.072	0.387 ± 0.19
COc1ccc2cc(CCC(C)=O)ccc2c1 [Nabumetone]	0.0509 ± 0.054	0.9948 ± 0.009	0.118 ± 0.098	0.227 ± 0.044
NCCc1ccc(O)c(O)c1 [Dopamine hydrochloride (Inotropin)]	0.15 ± 0.2	0.9948 ± 0.009	0.108 ± 0.072	0.229 ± 0.067
O=c1[nH]cnc2c1ncn2[C@H]1CC[C@@H](CO)O1 [Didanosine (Videx)]	0.0788 ± 0.043	0.9986 ± 0.0025	0.112 ± 0.073	0.215 ± 0.037
CCc1c(Cl)c(O)c(Cl)c(O)c1C(=O)O[C@H]1[C@H](O)[C@H](OC)[C@H](OC/C2=C\C=C\C[C@H](O)/C(C)=C/[C@H](CC)[C@@H](O[C@@H]3OC(C)(C)[C@@H](OC(=O)C(C)C)[C@H](O)[C@@H]3O)/C(C)=C/C(C)=C/C[C@@H]([C@@H](C)O)OC2=O)O[C@@H]1C [Fidaxomicin]	0.121 ± 0.19	0.987 ± 0.023	0.147 ± 0.12	0.214 ± 0.091
[I-].[K+] [Potassium iodide]	0.138 ± 0.19	0.992 ± 0.015	0.136 ± 0.058	0.223 ± 0.1
CC[C@H]1OC(=O)[C@H](C)[C@@H](O[C@H]2C[C@@](C)(OC)[C@@H](O)[C@H](C)O2)[C@H](C)[C@@H](O[C@@H]2O[C@H](C)C[C@H](N(C)C)[C@H]2O)[C@](C)(O)C[C@@H](C)[C@@H]2N[C@@H](COCCOC)O[C@H]([C@H]2C)[C@]1(C)O [Dirithromycin]	0.0717 ± 0.09	0.993 ± 0.013	0.123 ± 0.1	0.21 ± 0.075
CC(=O)S[C@@H]1CC2=CC(=O)CC[C@]2(C)[C@H]2CC[C@@]3(C)[C@@H](CC[C@@]34CCC(=O)O4)[C@H]12 [Spironolactone]	0.0723 ± 0.099	0.985 ± 0.025	0.106 ± 0.086	0.221 ± 0.064
Nc1ccn([C@@H]2O[C@H](CO)[C@@H](O)C2(F)F)c(=O)n1 [Gemcitabine (Gemzar)]	0.0946 ± 0.074	0.9974 ± 0.0046	0.0667 ± 0.041	0.138 ± 0.042
O=c1c(-c2ccc(O)cc2)coc2cc(O)ccc12 [Daidzein]	0.101 ± 0.13	0.992 ± 0.014	0.104 ± 0.042	0.219 ± 0.076
NC[C@H](O)c1ccc(O)c(O)c1 [Noradrenaline bitartrate monohydrate (Levophed)]	0.119 ± 0.18	0.975 ± 0.044	0.119 ± 0.093	0.206 ± 0.07
Cc1cnc(C(=O)NCCc2ccc(S(=O)(=O)NC(=O)NC3CCCCC3)cc2)cn1 [Glipizide (Glucotrol)]	0.121 ± 0.14	0.998 ± 0.0034	0.106 ± 0.07	0.218 ± 0.056
Oc1ncnc2[nH]ncc12 [Allopurinol (Zyloprim)]	0.191 ± 0.25	0.9984 ± 0.0027	0.103 ± 0.059	0.226 ± 0.066
C[C@]12C=CC(=O)N[C@@H]1CC[C@@H]1[C@@H]2CC[C@]2(C)[C@@H](C(=O)Nc3cc(C(F)(F)F)ccc3C(F)(F)F)CC[C@@H]12 [Dutasteride]	0.0446 ± 0.036	0.997 ± 0.0053	0.104 ± 0.057	0.194 ± 0.07
CC(C)(O)c1ccccc1CC[C@@H](SCC1(CC(=O)O)CC1)c1cccc(/C=C/c2ccc3ccc(Cl)cc3n2)c1 [Montelukast Sodium]	0.0577 ± 0.074	0.9943 ± 0.0099	0.113 ± 0.1	0.219 ± 0.058
CC1(C)S[C@@H]2[C@H](NC(=O)[C@H](N)c3ccc(O)cc3)C(=O)N2[C@H]1C(=O)O [Amoxicillin sodium (Amox)]	0.105 ± 0.16	0.9977 ± 0.004	0.132 ± 0.095	0.222 ± 0.095

No new results follow: two of the compounds above.
SMILES	fraction [1]	fraction [2]	fraction of reporter-positive cells with nuclear (HeLa RPS2-YFP reporter)	fraction of reporter-positive cells with nuclear (HeLa RPL29-GFP reporter)
Nc1ccn([C@@H]2CS[C@H](CO)O2)c(=O)n1 [Lamivudine (Epivir)]	0.0686 ± 0.056	0.9983 ± 0.0029	0.109 ± 0.083	0.203 ± 0.041
CCC(=O)O[C@@H](O[P@](=O)(CCCCc1ccccc1)CC(=O)N1C[C@H](C2CCCCC2)C[C@H]1C(=O)O)C(C)C [Fosinopril sodium (Monopril)]	0.0646 ± 0.087	0.992 ± 0.013	0.0989 ± 0.065	0.244 ± 0.074

Further compounds

SMILES	fraction [1]	fraction [2]	fraction of reporter-positive cells with nuclear (HeLa RPS2-YFP reporter)	fraction of reporter-positive cells with nuclear (HeLa RPL29-GFP reporter)
CN1C[C@@H]2C[C@H]1CN2c1cc2c(cc1F)c(=O)c(C(=O)O)cn2C1CC1 [Danofloxacin Mesylate]	0.0927 ± 0.12	0.984 ± 0.028	0.158 ± 0.094	0.218 ± 0.072
Cc1ccc(Nc2nccc(N(C)c3ccc4c(C)n(C)nc4c3)n2)cc1S(N)(=O)=O [Pazopanib HCl]	0.0503 ± 0.012	0.9984 ± 0.0027	0.097 ± 0.088	0.23 ± 0.031
COc1ccc2cc([C@H](C)C(=O)O)ccc2c1 [Naproxen (Aleve)]	0.163 ± 0.12	0.9987 ± 0.0023	0.128 ± 0.087	0.21 ± 0.063
COc1ccccc1OCC(O)CN1CCN(CC(=O)Nc2c(C)cccc2C)CC1 (configuration not stated) [Ranolazine dihydrochloride]	0.0903 ± 0.084	0.9979 ± 0.0036	0.118 ± 0.039	0.212 ± 0.058
CN(CCOc1ccc(CC2SC(=O)NC2=O)cc1)c1ccccn1 (configuration not stated) [Rosiglitazone maleate]	0.133 ± 0.2	0.9974 ± 0.0045	0.101 ± 0.08	0.204 ± 0.077
CN(C)CCCN1c2ccccc2Sc2ccc(Cl)cc21 [Chlorpromazine (Sonazine)]	0.17 ± 0.26	0.99 ± 0.018	0.127 ± 0.1	0.262 ± 0.091
NCCCCCC(=O)O [Aminocaproic acid (Amicar)]	0.0675 ± 0.039	0.9982 ± 0.0032	0.0758 ± 0.021	0.244 ± 0.02
C=CC1=C(C(=O)O)N2C(=O)[C@@H](NC(=O)/C(=N\O)c3csc(N)n3)[C@H]2SC1 [Cefdinir (Omnicef)]	0.102 ± 0.061	0.9974 ± 0.0045	0.117 ± 0.1	0.208 ± 0.063
CCOc1cc(CC(=O)N[C@@H](CC(C)C)c2ccccc2N2CCCCC2)ccc1C(=O)O [Repaglinide]	0.0765 ± 0.065	0.9991 ± 0.0015	0.148 ± 0.086	0.211 ± 0.093
CC/C(=C(\c1ccccc1)c1ccc(OCCN(C)C)cc1)c1ccccc1 [Tamoxifen Citrate (Nolvadex)]	0.103 ± 0.13	0.989 ± 0.018	0.104 ± 0.09	0.235 ± 0.12
Cc1ccnc2c1NC(=O)c1cccnc1N2C1CC1 [Nevirapine (Viramune)]	0.11 ± 0.13	0.9975 ± 0.0043	0.116 ± 0.088	0.206 ± 0.063
COc1ccc(Cl)cc1C(=O)NCCc1ccc(S(=O)(=O)NC(=O)NC2CCCCC2)cc1 [Glyburide (Diabeta)]	0.109 ± 0.12	0.9986 ± 0.0025	0.114 ± 0.082	0.223 ± 0.084
O=C(O)C(=O)O.[NH-]C1CCCCC1[NH-].[Pt+2] (configuration not stated) [Oxaliplatin (Eloxatin)]	0.0878 ± 0.1	0.911 ± 0.15	0.073 ± 0.045	0.284 ± 0.14
CCCCNC(=O)NS(=O)(=O)c1ccc(C)cc1 [Tolbutamide]	0.149 ± 0.21	0.991 ± 0.016	0.136 ± 0.11	0.229 ± 0.098
O=C(O)Cc1ccccc1Nc1c(Cl)cccc1Cl [Diclofenac Potassium]	0.132 ± 0.19	0.983 ± 0.03	0.111 ± 0.099	0.206 ± 0.032
CCCC(C(=O)OCCN(CC)CC)(c1ccccc1)c1ccccc1 [Proadifen HCl]	0.0997 ± 0.1	0.998 ± 0.0035	0.181 ± 0.17	0.326 ± 0.25
CNC[C@H](O)c1ccc(O)c(O)c1 [Epinephrine bitartrate (Adrenalinium)]	0.147 ± 0.21	0.991 ± 0.015	0.117 ± 0.09	0.214 ± 0.069
CCc1cccc2c3c([nH]c12)C(CC)(CC(=O)O)OCC3 (configuration not stated) [Etodolac (Lodine)]	0.072 ± 0.052	0.997 ± 0.0051	0.0781 ± 0.053	0.234 ± 0.067
CS(=O)(=O)c1ccc(C(=O)Nc2ccc(Cl)c(-c3ccccn3)c2)c(Cl)c1 [Vismodegib (GDC-0449)]	0.0597 ± 0.045	0.9984 ± 0.0027	0.109 ± 0.07	0.188 ± 0.043
CN1CCC(=C2c3ccccc3CCc3cccnc32)CC1 [Azatadine dimaleate]	0.053 ± 0.065	0.984 ± 0.027	0.143 ± 0.094	0.197 ± 0.03
CC(=O)Oc1ccc(C(c2ccc(OC(C)=O)cc2)c2ccccn2)cc1 [Bisacodyl]	0.0599 ± 0.076	0.983 ± 0.03	0.11 ± 0.1	0.201 ± 0.048

Taken from above:
`CC(=O)Oc1ccc(C(c2ccc(OC(C)=O)cc2)c2ccccn2)cc1` [Bisacodyl] – fraction [2]: 0.983 ± 0.03
`CN1CCC(=C2c3ccccc3CCc3cccnc32)CC1` [Azatadine dimaleate] – fraction [1]: 0.053 ± 0.065
`CS(=O)(=O)c1ccc(C(=O)Nc2ccc(Cl)c(-c3ccccn3)c2)c(Cl)c1` [Vismodegib (GDC-0449)] – fraction [1]: 0.0597 ± 0.045

Source: the supplement of paper PMC12542422
